We go through four substances from publication PMC9226502.

The chains behind the UniProt entries cited, without tags or fusion partners. Where a name states a change or a piece, a line headed by the entry shows the natural chain unless it says otherwise.
UniProt P23367: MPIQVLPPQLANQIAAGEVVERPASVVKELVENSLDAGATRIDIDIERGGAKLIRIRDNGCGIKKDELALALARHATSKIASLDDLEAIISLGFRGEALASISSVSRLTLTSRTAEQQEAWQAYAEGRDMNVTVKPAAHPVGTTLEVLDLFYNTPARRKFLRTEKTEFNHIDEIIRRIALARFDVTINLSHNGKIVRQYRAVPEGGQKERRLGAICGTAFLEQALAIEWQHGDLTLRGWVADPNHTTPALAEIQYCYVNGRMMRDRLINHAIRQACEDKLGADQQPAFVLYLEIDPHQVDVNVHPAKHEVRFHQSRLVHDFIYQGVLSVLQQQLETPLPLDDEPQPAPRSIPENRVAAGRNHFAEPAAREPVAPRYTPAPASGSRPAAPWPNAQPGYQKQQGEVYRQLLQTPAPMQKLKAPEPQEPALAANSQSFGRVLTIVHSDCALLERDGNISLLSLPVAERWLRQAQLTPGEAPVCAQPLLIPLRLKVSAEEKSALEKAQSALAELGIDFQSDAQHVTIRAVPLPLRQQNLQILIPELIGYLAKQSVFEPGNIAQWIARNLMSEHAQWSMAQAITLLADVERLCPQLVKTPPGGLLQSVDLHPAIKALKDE

Results are given in words; binding and its absence hold for the method and conditions named. Some entries that bind do so weakly or less than the wild type.

The target in this assay is T1, MutS (UniProt P23909).
T1 sequence: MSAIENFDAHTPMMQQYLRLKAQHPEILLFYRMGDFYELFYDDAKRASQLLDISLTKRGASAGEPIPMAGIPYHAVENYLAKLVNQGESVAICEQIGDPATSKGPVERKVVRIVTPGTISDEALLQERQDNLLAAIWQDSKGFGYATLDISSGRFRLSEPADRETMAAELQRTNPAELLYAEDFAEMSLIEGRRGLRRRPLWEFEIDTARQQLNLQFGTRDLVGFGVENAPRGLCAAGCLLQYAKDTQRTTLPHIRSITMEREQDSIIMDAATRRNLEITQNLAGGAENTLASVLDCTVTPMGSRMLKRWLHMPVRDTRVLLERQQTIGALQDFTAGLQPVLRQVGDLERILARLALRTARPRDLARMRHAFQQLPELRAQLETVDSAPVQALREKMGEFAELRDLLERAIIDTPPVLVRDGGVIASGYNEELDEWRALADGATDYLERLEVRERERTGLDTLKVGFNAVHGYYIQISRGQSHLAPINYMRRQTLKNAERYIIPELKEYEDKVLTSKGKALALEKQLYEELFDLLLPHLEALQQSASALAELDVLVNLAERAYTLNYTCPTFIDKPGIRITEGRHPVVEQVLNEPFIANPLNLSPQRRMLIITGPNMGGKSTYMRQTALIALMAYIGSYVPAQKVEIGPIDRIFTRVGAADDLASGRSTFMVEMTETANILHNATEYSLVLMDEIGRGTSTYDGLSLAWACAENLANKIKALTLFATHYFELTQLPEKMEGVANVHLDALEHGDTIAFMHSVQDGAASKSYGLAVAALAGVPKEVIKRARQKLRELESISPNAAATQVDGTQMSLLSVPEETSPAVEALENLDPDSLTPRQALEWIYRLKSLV
As to the kind of experiment: BLI; streptavidin biosensors loaded with a 70 bp end-blocked biotinylated DNA with a single mismatch; 18.75-150 nM MutL with 100 nM MutS in solution; 25 mM HEPES pH 7.5, 150 mM NaCl, 5 mM MgCl2, 2 mM DTT, 0.5 mg/ml BSA, 0.01% Tween 20, 2 mM ATP; MutS-MutL complexes form on the DNA; both purified. On the technique in general: BLI is a label-free optical method that tracks binding on a fibre tip over time.

Regarding MutL^H270A (from UniProt P23367 1-615), the binding result was “binds”.
The same measure for “MutL^H270A+H319A (from UniProt P23367 1-615)”: “binds”; for MutL^H319A (from UniProt P23367 1-615): “binds”.
Then “MutL^WT (Escherichia coli MutL protein, wild type) (from UniProt P23367 1-615)”, with “binds”.
